{"source": "patent US20250296928A1", "about": "“A SYNTHESIS SCHEME AND PROCEDURES FOR PREPARING A SIK3 INHIBITOR AND INTERMEDIATES THEREOF” (iOmx Therapeutics AG, priority 2021, published 2025)", "tested_on": "MC38 cells", "test": "MC38 syngeneic tumour model, in-vivo anti-cancer efficacy", "conditions": "twice daily application", "note": "Some of these results come from one statement about several compounds together."}
{"smiles": "Cc1nc(Nc2ncc(C(=O)Nc3c(CF)csc3Cl)s2)cc(N2CCN(C)CC2)n1", "note": "[Compound E9, N-(2-chloro-4-(fluoromethyl)thiophen-3-yl)-2-((2-methyl-6-(4-methylpiperazin-1-yl)pyrimidin-4-yl)amino)thiazole-5-carboxamide]", "values": [{"measurement": "TGI", "result": "60 to 80", "unit": "%"}]}
